# Reference: PubChem BioAssay AID493014 (National Center for Advancing Translational Sciences (NCATS), 2011)
# The list shows a part of the results. The main result of the screen is listed elsewhere. These columns were measured beside it and carry no call. Compounds called inactive in the main read-out are mostly missing here. The note in brackets gives the kind of curve behind each potency; many fits are weak.
# Test: qHTS Assay to Find Inhibitors of Chronic Active B-Cell Receptor Signaling
# Conditions: ABC-DLBCL IkBa-CBG/CBR reporter, luminescence ratio (green luciferase fused to IkBa over red control in TMD8 lymphoma cells), 4 h
# In short: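 Cell line TMD8 (human ABC DLBCL), stably expressing tet-inducible CBG68-IkBa fusion and CBR; IMDM/0.5% FBS; cpd up to 46 uM; dox induction, 4 h, 37C/5% CO2; dual luminescence; green/red ratio; MG132 control.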
# [1] = measured here: CBR red luminescence, cell number
# [2] = measured here: IkBa-CBG green luminescence
SMILES,AC50 [1],AC50 [2]
O=c1[nH]c(=O)c2nnc(N/N=C\c3ccc(O)cc3)nc2[nH]1,"35.5 µM [falling, single point]",–
CCc1cccc(NC(=O)CCCSc2nc3ccccc3[nH]2)c1,"20.6 µM [falling, partial curve, poor fit]",–
COc1ccc(C(=O)Nc2ccc(C(=O)OCC(=O)c3cccc4ccccc34)cc2)cc1,"4.11 µM [falling, full curve, poor fit]",–
O=C(/C=C/c1ccccc1)Nc1cc(S(=O)(=O)N2CCOCC2)ccc1N1CCCC1,"0.13 µM [rising, full curve, poor fit]",–
Cc1cccc(NC(=S)Nc2ccc(Br)cc2)c1,"5.62 µM [rising, single point]",–
COc1ccc2oc(=O)c(-c3csc(Nc4cccc(O)c4)n3)cc2c1,"5.17 µM [falling, partial curve, poor fit]",–
COc1cc(C2C(C#N)=C(N)N(Nc3ccccc3)C3=C2C(=O)CC(C)(C)C3)ccc1OCc1cccc(F)c1 (configuration not stated),"7.08 µM [falling, partial curve]",–
O=C(NNc1ccc([N+](=O)[O-])cc1)C1C2CCCCC21 (configuration not stated),"20.6 µM [rising, partial curve, poor fit]",–
CC(C)n1nccc1NC(=O)COC(=O)c1ccc(NC(N)=O)cc1,"25.9 µM [rising, single point]",–
COc1ccc(S(=O)(=O)Nc2nnc(C(C)C)s2)cc1,"2.59 µM [rising, single point]",–
CC1CCCCN1C(=O)Cn1c(=O)oc2cc(S(=O)(=O)N3CCCC3)ccc21 (configuration not stated),"5.01 µM [falling, single point]",–
O=C(NC(=O)c1ccccc1)NC(=O)c1ccccc1,"23.1 µM [falling, single point]",–
COc1ccc(C(=O)Nc2cccc3ccccc23)cc1,"20 µM [falling, partial curve, poor fit]",–
C/C(=N/NC(=O)CNC(=O)c1ccncc1)c1ccc(Cl)cc1,"35.5 µM [rising, single point]",–
CC1(C)COC(c2ccc(F)c([N+](=O)[O-])c2)=N1,"29.1 µM [falling, single point]","13 µM [rising, partial curve, poor fit]"
CC(C)OC(=O)/C(C#N)=C/c1cn(Cc2ccccc2)c2ccccc12,"6.51 µM [rising, partial curve, poor fit]",–
COc1ccc(/C=C(\C#N)C(=O)Nc2ccccn2)cc1,"6.31 µM [rising, single point]",–
O=C(CCn1nc(-c2ccccc2)ccc1=O)N1CCCC1,"16.4 µM [rising, partial curve]",–
O=C1CC(c2cccc(Cl)c2)CC(O)=C1C=Nc1ccccc1 (configuration not stated),"25.9 µM [rising, single point]",–
CNCc1ccccc1Sc1ccc(O)c(O)c1,"3.26 µM [rising, single point]","6.51 µM [falling, partial curve, poor fit]"

SMILES,AC50 [1],AC50 [2]
CSc1nncn1/N=C/c1ccc([N+](=O)[O-])cc1,"22.4 µM [rising, single point]",–
Cc1nc(C)c(-c2csc(Nc3ccc(O)c(C(=O)O)c3)n2)s1,"15.8 µM [falling, single point]",–
Cc1cc(C)nc(Nc2nc(-c3ccccc3)cs2)n1,"1.58 µM [falling, full curve]",–
COc1ccc(N=NC2C(=O)N(c3ccccc3)N=C2C)cc1 (configuration not stated),"11.2 µM [falling, partial curve, poor fit]",–
Cc1cccc(NC(=S)N(CCCN2CCOCC2)Cc2cn(C)c3ccccc23)c1,"7.31 µM [rising, partial curve, poor fit]",–
O=C(Nc1nnc(CSCc2ccc(Cl)cc2)s1)c1cccc([N+](=O)[O-])c1,"2.31 µM [rising, single point]",–
COc1ccc(CC(=O)Nc2ccc(N3CCN(c4ccc(OC)cc4)CC3)c(C#N)c2)cc1,"0.206 µM [rising, full curve, poor fit]",–
CCCCOC(=O)Nc1ccc(C(C)C)cc1,"0.184 µM [rising, partial curve, poor fit]",–
COc1ccc(C)cc1N1CC(C(=O)OCc2nc(N)nc(Nc3ccccc3C)n2)CC1=O (configuration not stated),"29.1 µM [rising, single point]",–
Cc1ccc(N(C)S(=O)(=O)c2cc3c(cc2C)NC(=O)CO3)cc1,"12.6 µM [rising, partial curve, poor fit]",–
Cc1ccc(NC(NC(=O)Cc2ccccc2)C(Cl)(Cl)Cl)cc1 (configuration not stated),"23.1 µM [falling, single point]",–
O=C(COc1ccccc1)NCC(c1cccs1)S(=O)(=O)c1ccc(Cl)cc1 (configuration not stated),"25.1 µM [falling, single point]",–
C[C@@H]1CC[C@]2(C(=O)O)CC[C@]3(C)C(=CCC4[C@@]5(C)CC[C@H](O)[C@@](C)(C(=O)O)C5CC[C@]43C)C2[C@]1(C)O (some centres not stated),"32.6 µM [rising, partial curve, poor fit]",–
O=C(Nc1ccccc1F)c1ccc(S(=O)(=O)N2CCCCCC2)cc1,"18.4 µM [falling, partial curve]",–
COc1ccc(N2CCN(C(=O)c3ccc(CS(=O)(=O)c4ccc(OC)cc4)o3)CC2)cc1,"23.1 µM [rising, single point]",–
CC(C)(C)c1ccc(/C=N/Nc2nncn2N)cc1,"35.5 µM [falling, single point]",–
CCCCn1nnc(NC(=O)CC23CC4CC(CC(C4)C2)C3)n1,"29.1 µM [rising, single point]",–
COc1cc(/C=C2\COC/C(=C\c3ccc(O)c(OC)c3)C2=O)ccc1O,"3.98 µM [falling, partial curve, poor fit]",–
Cc1cccc(OCc2nnc(NC(=O)c3cccs3)s2)c1,"5.8 µM [rising, full curve, poor fit]",–
O=C1/C(=C/c2cccc([N+](=O)[O-])c2)Oc2cc(O)ccc21,"1.12 µM [rising, full curve, poor fit]",–

# Individual results from the entries so far.
# For AC50 [1], `O=C(Nc1ccccc1F)c1ccc(S(=O)(=O)N2CCCCCC2)cc1` has 18.4 µM [falling, partial curve]
# For AC50 [1], `CC(C)(C)c1ccc(/C=N/Nc2nncn2N)cc1` has 35.5 µM [falling, single point]
